According to patent US20240159706A1, “MALDI-MS METHOD, PHOTO-SENSITIVE MALDI MATRIX COMPOSITE AND PHOTO-CAGED MALDI MATRIX COMPOUND FOR USE IN SAID METHOD AND RESPECTIVE USES” (SIRIUS FINE CHEMICALS SICHEM GMBH, priority 2021, published 2024):

Assay: MALDI-TOF MSI of lipids from porcine brain tissue before and after 18 hrs incubation under vacuum (Example 8)
Conditions: 18 hrs in MALDI source, 2×10^−7 mbar, 35° C.
Experimental: An ITO glass slide with two pieces of porcine brain tissue sections was prepared as described above (cf. Example 4a). An optical image was taken thereof for the registration process in the software FlexImaging. The workflow for the present example is explained below with reference to FIG. 14.
The Photo-caged MALDI Matrix Compound of Ex. 1.1 (DMNB-2,5-DHAP) and the conventional (uncaged) MALDI matrix compound 2,5-DHAP were both dissolved at concentrations of 2.5 mg/mL (acetonitrile/water 85:15, v/v+0.1% trifluoroacetic acid) and sprayed on top of the two different pieces of porcine brain tissue sections (preparation see above), using the spray parameters as described in Example 4a above. Homogenous and small crystals of DMNB-2,5-DHAP were subsequently observed on the ITO glass slide as well as on the porcine brain tissue section. 1st and 2nd MALDI imaging measurements and optical images were then made (optical images before and after 1st MALDI imaging measurement and directly before 2nd MALDI imaging measurement) of the Photo-caged MALDI Matrix Compound and of the conventional MALDI matrix compound on the ITO glass slides (glass surface sections and porcine tissue sections), respectively. After the 1st MALDI imaging measurement, the slides were left inside the MALDI source for incubation (18 hrs, for incubation conditions see below) before the 2nd MALDI imaging measurements were made.
MALDI imaging measurements were performed for the Photo-caged MALDI Matrix Compound of Ex. 1.1 and the conventional MALDI matrix compound 2,5-DHAP on a rapifleX™ MALDI TOF mass spectrometer (Bruker Daltonics) in reflector-negative ion mode in a mass range from m/z 100 to 1700 (ion suppression up to 80 m/z) using the FlexImaging 5.0 software (Bruker Daltonics). Inside the MALDI ion source, a vacuum of 2×10^−7 mbar and a temperature of 35° C. (incubation conditions) were observed. The acquisition method was calibrated using a polyaniline solution and matrix. Settings: acquisition mode: 250 laser shots at 10 kHz repetition rate per position; spatial resolution: 50 μm; digitizer: 1.25 Gs/s; Ion Source: 1 to 20 kV; PIT: 2.47 kV; lens: 11.4 kV; Pulsed Ion Extraction: 110 ns. The laser energy was determined for each matrix. Data visualization was performed using FlexImaging 5.0 software (Bruker Daltonics). Total ion count (TIC) normalization was performed for all data.

| Structure (SMILES) | ion images of lipids from porcine brain tissue after incubation under vacuum |
| --- | --- |
| Nc1cccc2c(N)cccc12 [1,5-DAN, 1,5-diaminonaphthalene, reference compound] | decreased significantly |
| CC(=O)c1cc(O)ccc1O [2,5-DHAP, 2,5-dihydroxyacetophenone, reference compound] | no or nearly no ion images |
| Sc1nc2ccccc2s1 [2-MBT, 2-mercaptobenzothiazole, reference compound] | decreased significantly |
| COc1cc(COc2ccc(O)c(C(C)=O)c2)c([N+](=O)[O-])cc1OC [Ex. 1.1, 1-(5-((4,5-Dimethoxy-2-nitrobenzyl)oxy)-2-hydroxyphenyl)ethan-1-one] | still visible |
| COc1cc(CNc2cccc3c(N)cccc23)c([N+](=O)[O-])cc1OC [Ex. 1.2, N^1-(4,5-dimethoxy-2-nitrobenzyl)naphthalene-1,5-diamine] | still visible |
| COc1cc(COc2cccc(O)c2C(C)=O)c([N+](=O)[O-])cc1OC [Ex. 1.4, 1-(2-((4,5-Dimethoxy-2-nitrobenzyl)oxy)-6-hydroxyphenyl)ethan-1-one] | still visible |
| COc1cc(CSc2nc3ccccc3s2)c([N+](=O)[O-])cc1OC [Ex. 1.5, 2-((4,5-Dimethoxy-2-nitrobenzyl)thio)benzo[d]thiazole] | still visible |
